From article PMC3808315 come the findings set out here.

No constants are given. Whether binding was seen depends on the method and setting. Binding can be weak; no strength is given. For part of these data: Tags and fused reporters may be left off the sequences shown.

B1: AtbZIP9 fused to the GAL4 activation domain (pAD-AtbZIP9) (protein, UniProt Q9FUD3 1-277)
chain: MDNHTAKDIGMKRSASELALQEYLTTSPLDPCFDLMNRDYTCELRDSLLWSEGLFPAGPFRDAQSSICENLSADSPVSANKPEVRGGVRRTTSGSSHVNSDDEDAETEAGQSEMTNDPNDLKRIRRMNSNRESAKRSRRRKQEYLVDLETQVDSLKGDNSTLYKQLIDATQQFRSAGTNNRVLKSDVETLRVKVKLAEDLVARGSLTSSLNQLLQTHLSPPSHSISSLHYTGNTSPAITVHSDQSLFPGMTLSGQNSSPGLGNVSSEAVSCVSDIWP
B2: AtbZIP10 fused to the GAL4 activation domain (pAD-AtbZIP10) (protein, UniProt O22763 1-411)
chain: MNSIFSIDDFSDPFWETPPIPLNPDSSKPVTADEVSQSQPEWTFEMFLEEISSSAVSSEPLGNNNNAIVGVSSAQSLPSVSGQNDFEDDSRFRDRDSGNLDCAAPMTTKTVIVDSDDYRRVLKNKLETECATVVSLRVGSVKPEDSTSSPETQLQPVQSSPLTQGELGVTSSLPAEVKKTGVSMKQVTSGSSREYSDDEDLDEENETTGSLKPEDVKKSRRMLSNRESARRSRRRKQEQTSDLETQVNDLKGEHSSLLKQLSNMNHKYDEAAVGNRILKADIETLRAKVKMAEETVKRVTGMNPMLLGRSSGHNNNNRMPITGNNRMDSSSIIPAYQPHSNLNHMSNQNIGIPTILPPRLGNNFAAPPSQTSSPLQRIRNGQNHHVTPSANPYGWNTEPQNDSAWPKKCVD
B3: AtbZIP63 fused to the GAL4 activation domain (pAD-AtbZIP63) (protein, UniProt B9DGI8 1-314)
chain: MEKVFSDEEISGNHHWSVNGMTSLNRSASEWAFNRFIQESSAAADDGESTTACGVSVSSPPNVPVDSEEYRAFLKSKLNLACAAVAMKRGTFIKPQDTSGRSDNGGANESEQASLASSKATPMMSSAITSGSELSGDEEEADGETNMNPTNVKRVKRMLSNRESARRSRRRKQAHLSELETQVSQLRVENSKLMKGLTDVTQTFNDASVENRVLKANIETLRAKVKMAEETVKRLTGFNPMFHNMPQIVSTVSLPSETSNSPDTTSSQVTTPEIISSGNKGKALIGCKMNRTASMRRVESLEHLQKRIRSVGDQ
B4: AtbZIP25 fused to the GAL4 activation domain (pAD-AtbZIP25) (protein, UniProt Q9M1G6 1-403)
chain: MHIVFSVDDLTESFWPVPAPAPSPGSSSTPSPTQNVADGMTRSQSEWAFHRLINELSGSDSSPTTNTIERSPPPVQSLSRLEETVDETEDVVEIQKPQNHRRLPVDDQGKNRNRAPSSDPVDSSAPVVVDPNQYHAILKSKLELACAAVARRVGTVKPEDSSASASNQKQAQGSIVAQTSPGASSVRFSPTTSTQKKPDVPARQTSISSRDDSDDDDLDGDADNGDPTDVKRARRMLSNRESARRSRRRKQEQMNEFDTQVGQLRAEHSTLINRLSDMNHKYDAAAVDNRILRADIETLRTKVKMAEETVKRVTGVNPLHWSRPNMGIPFSNTPSASSSIPPNSNHILKPANSSTNTSAGLAQNQRVETANFLPEQVNREGMQNPFAPDSNLYETLPHWNHKH
B5: AtbZIP10 expressed from pAUR123 (without GAL4 activation domain) (protein, UniProt O22763 1-411)
chain: B2 chain
B6: AtbZIP25 expressed from pAUR123 (without GAL4 activation domain) (protein, UniProt Q9M1G6 1-403)
chain: B4 chain

One assay concerns the target GmbZIP123 fused to the GAL4 DNA-binding domain (pBD-GmbZIP123) (soybean (Glycine max)) (UniProt Q0GPF9). Description: two-hybrid; GAL4 BD-GmbZIP123 with GAL4 AD fusions of Arabidopsis group C bZIP TFs in yeast strain YRG2; HIS3 reporter, growth on His-depleted medium; BD empty vector as negative control.
B1: the binding result is recorded as “binds”.

Take B2: the binding entry was “binds”.

For the molecule B3, the binding entry is “binds”.

Turning to B4, the binding entry was “binds”.

A further assay has the same target. The assay is described as follows: two-hybrid; GAL4 BD-GmbZIP123 co-expressed with AtbZIP10 or AtbZIP25 from pAUR123 (no GAL4 AD) in yeast strain YRG2; HIS3 reporter, growth on SD/-His/-Trp medium; empty vector as control.
In the case of B5, the binding result was “binds”.

For the molecule B6, the binding result is on record as “binds”.
